Consider two sequences from patent US20170022546.

A negative result means that nothing was seen under these conditions. Protein sequences can lack the tags named with them. For at least one entry, the source does not settle the construct or the ends of the probe.

The target of this series is T1, MBD-1x (75 aa methyl-CpG binding domain of MBD1) (UniProt Q9UIS9).
T1 sequence (looked up, limits assumed): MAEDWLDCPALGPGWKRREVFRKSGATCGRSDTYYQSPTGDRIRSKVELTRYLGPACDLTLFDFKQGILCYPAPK
Briefly: EMSA. The note with it: purified recombinant protein. On the technique in general: A gel shift assay detects complexes by their altered migration in electrophoresis.

Turning to “GACCAATCCCCAGTGATTATGCAAGACAGCGGACCAATCAGCTCCGCCAGCTCATGAATATTTATGACCTTCGCTGAGTCAAAGCTTTGAACCGAGTTTGGGGAGCTCAGCAGCATCATGCTTAGACTTTTCAAAGAGACAAACTCCATTTTCTTATGAATGGAAAGTGAAAACCCCTGTTCCGCTTAAATTGGGTTCCTTCCTGTCCTGAGAAACATAGAGACCCCCAAAAGGGAAGCAGAGGAGAGAAAGTCCCACACCCAGACCCCGCGAGAAGAGATGACCATGACCACCATGCCAGAAAGTCTCAACAGCCCCGTGTCGGGCAAGGCGGTGTTTATGGAGTTTGGGCCGCCCAACCAGCAAATGTCTCCTTCTCCCATGTCCCACGGGCACTACTCCATGCACTGTTTACACTCGGCGGGCCATTCGCAGCCCGACGGCGCCTACAGCTCAGCCTCGTCCTTCTCCCGACCGCTGGGCTACCCCTACGTCAACTCGGTCAGCAGCCACGCATCCAGCCCCTACATCAGTTCGGTGCAGTCCTACCCGGGCAGCGCCAGCCTCGCCCAGAGCCGCCTGGAGGACCCAGGTACGTGCGCTTGCCAGGGAGAGGGAGAGGAGGAGGTACAAGGGAGAGAGGGAAAGAAGGAGCGGGGGAGAAGAGGAGAGGGAGAGAGAGAGAAAGAGAAGAGAGGAGAGCGAGGTGGGGTGGGGGTGGGGAGGGCGCGGGAGCAGTGGAGGTTTCGAATATCAATCTATAGATCCTTGTCACAGCAAATAAATTTTTTTAAAAATTCCCTCAATTTGCAACTATCCAGCCAAGG (double strand) [mDLX1 827 bp, M.SssI methylated]”, the binding result (5mC at 36 CpG sites (M.SssI), dose-dependent complex, 80 mM KCl, pH 7.5, poly(dI-dC), complex persists up to 600 mM KCl, variant of uDLX1 827 bp, unmethylated) is given as “binds”. As for “GACCAATCCCCAGTGATTATGCAAGACAGCGGACCAATCAGCTCCGCCAGCTCATGAATATTTATGACCTTCGCTGAGTCAAAGCTTTGAACCGAGTTTGGGGAGCTCAGCAGCATCATGCTTAGACTTTTCAAAGAGACAAACTCCATTTTCTTATGAATGGAAAGTGAAAACCCCTGTTCCGCTTAAATTGGGTTCCTTCCTGTCCTGAGAAACATAGAGACCCCCAAAAGGGAAGCAGAGGAGAGAAAGTCCCACACCCAGACCCCGCGAGAAGAGATGACCATGACCACCATGCCAGAAAGTCTCAACAGCCCCGTGTCGGGCAAGGCGGTGTTTATGGAGTTTGGGCCGCCCAACCAGCAAATGTCTCCTTCTCCCATGTCCCACGGGCACTACTCCATGCACTGTTTACACTCGGCGGGCCATTCGCAGCCCGACGGCGCCTACAGCTCAGCCTCGTCCTTCTCCCGACCGCTGGGCTACCCCTACGTCAACTCGGTCAGCAGCCACGCATCCAGCCCCTACATCAGTTCGGTGCAGTCCTACCCGGGCAGCGCCAGCCTCGCCCAGAGCCGCCTGGAGGACCCAGGTACGTGCGCTTGCCAGGGAGAGGGAGAGGAGGAGGTACAAGGGAGAGAGGGAAAGAAGGAGCGGGGGAGAAGAGGAGAGGGAGAGAGAGAGAAAGAGAAGAGAGGAGAGCGAGGTGGGGTGGGGGTGGGGAGGGCGCGGGAGCAGTGGAGGTTTCGAATATCAATCTATAGATCCTTGTCACAGCAAATAAATTTTTTTAAAAATTCCCTCAATTTGCAACTATCCAGCCAAGG (double strand) [uDLX1 827 bp, unmethylated]”, under “no complex with increasing MBD-1x”, the binding result is recorded as “no binding”.
